Data: PubChem BioAssay AID1508600 (Functional Genomics Laboratory (NCATS/FGL), 2020)
About 3,700 (7%) of roughly 53,000 sequences were called active.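 How the source made its calls: active means gene knockdowns whose robust z-score for IL-1 alpha signal is at least 2 or at most -2, so actives lie on both sides; inactive means the rest.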 The list shows a part of the results.

Assay: Components of the Cytosolic LPS Sensing Pathway: Gene Identification via Genome-wide siRNA Screen;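 further: robust z of the log signal after scaling to non-targeting control siRNA wells of the plate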
Settings: RAW264.7 macrophages, IL-1a HTRF, actives lie on both sides, screened at 100 nM (by protocol), cells primed 5 h with Pam3CSK4 first
Outline: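 Using IL-1a HTRF as read-out, the screen measured release from RAW264.7 cells after 48h siRNA knockdown (100 nM), 5 h Pam3CSK4 priming and 24 h cytosolic LipidA. Values were expressed relative to negative-control wells as robust z-scores.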

Q: Which z-score does the source give for CGACCUACCUUUAAGCUUGTT against Gnptab here?
A: inactive: 1.43

Q: Which z-score does the source give for CCUAAGUACUGUAAGAAUATT against Mycn here?
A: inactive: 0.506

Q: For CCACUAUUCUGUCAAAGGGTT against Pmm2, which z-score is on record?
A: inactive: -0.537

Q: Which z-score does the source give for GCUCGAGGACUAUAUGAAUTT against Xrcc1 here?
A: active: 2.03

Q: With GGACAAAGCAAUCCACAUCTT against Wdr55 as the sequence, how does the z-score read?
A: inactive: -0.564

Q: With GCAGAUGGGCAUCUAUGCUTT against Trpv1 as the sequence, how does the z-score read?
A: inactive: -0.427

Q: For GUUAUAGCGGCGAAGGUGUTT against Maml3, which z-score is on record?
A: inactive: 1.02

Q: Which z-score does the source give for GGCAUGACAUCAUUGCAUGTT against Mapre2 here?
A: inactive: 0.381

Q: Which z-score does the source give for GGAAGCUCUACCAGGUUAATT against Capg here?
A: inactive: 0.479

Q: With GCCAUGUUAAAUUCUCUACTT against Poln as the sequence, how does the z-score read?
A: inactive: 0.575

Q: For GGAACUGUAGAUUGUGUACTT against Pdcd4, which z-score is on record?
A: inactive: 1.52

Q: Which z-score does the source give for GGUUGCUACAAGAUUACUATT against Rps27l here?
A: inactive: 0.809

Q: Which z-score does the source give for GGUGAAGCAUGAGUUUAAATT against Arl5b here?
A: inactive: 0.324

Q: For GCAAGUAUUUUACAGGUGCTT against Lman1, which z-score is on record?
A: inactive: -0.516

Q: For GGUCUUGUGCAUAAAACAGTT against Ece2, which z-score is on record?
A: inactive: -1.06

Q: With GGAGCAUGUAGAGGUUUACTT against Txnrd2 as the sequence, how does the z-score read?
A: active: 2.44

Q: With GGAGUGGGAGAAGAUGGAATT against Mbd4 as the sequence, how does the z-score read?
A: active: 2.17

Q: Which z-score does the source give for GGUAUUAUUUCUGAAUGCCTT against Mtrf1l here?
A: inactive: -0.0601

Q: With GGCCACAAGUUUUCAGACGTT against Actl7b as the sequence, how does the z-score read?
A: inactive: 1.15

Q: Which z-score does the source give for GGGACUACCUGAAUAAUGUTT against Tspan12 here?
A: inactive: -0.351

Q: For GGCCCUUACUUCCACAUCATT against Fam104a, which z-score is on record?
A: inactive: -0.711

Q: With CCAAACCGAUAUAUAAAGUTT against Ddx51 as the sequence, how does the z-score read?
A: inactive: -0.9

Q: Which z-score does the source give for GGCCCAUAUCCACAUGAUGTT against Uxt here?
A: inactive: -1.9

Q: Which z-score does the source give for CCCUUAUCCCAAUAAUAAGTT against Spag5 here?
A: inactive: -1.78

Q: With GGAGCUUCCACAACUCAUATT against Esd as the sequence, how does the z-score read?
A: inactive: -0.456

Q: Which z-score does the source give for GGACAUUGCUGCCUAUAUCTT against Dynll2 here?
A: inactive: 0.452

Q: For GGAAGAUGGGAACAGCACUTT against Rsad2, which z-score is on record?
A: inactive: 0.209

Q: For CCACUUCUUUCCAUGAACUTT against Slc6a4, which z-score is on record?
A: inactive: 0.7

Q: For GGCAAGUUCCGAGAAGGGATT against Irf4, which z-score is on record?
A: inactive: -0.483

Q: For GGAUGGUCUGCUAUUACAUTT against Phf7, which z-score is on record?
A: inactive: 0.832

Q: Which z-score does the source give for GGAAGUUGUGUGACAGAAATT against Lcn8 here?
A: inactive: 0.41

Q: For GCUUCUAAGCUUUAGAGGGTT against Rassf10, which z-score is on record?
A: inactive: -1

Q: With GGGAGAAGAGAUUCUGAUATT against Sh2d1a as the sequence, how does the z-score read?
A: inactive: -0.117

Q: With GGUUCUCAUUGUUGUUGUATT against Prkcb as the sequence, how does the z-score read?
A: inactive: -0.339

Q: With GGGACUAUGGUGUCAGAAATT against Clec4n as the sequence, how does the z-score read?
A: inactive: 0.533

Q: Which z-score does the source give for “GGAUGGUGGCAUUUUACAGTT against 2810407A14Rik” here?
A: inactive: 0.514

Q: For GCUAGAGGAGUUUCUAAACTT against Clu, which z-score is on record?
A: inactive: 0.0975

Q: With GGGUAUAACUGUCAAACAGTT against Tbc1d24 as the sequence, how does the z-score read?
A: inactive: -1.83

Q: Which z-score does the source give for GGCCAUUGUUACUGGAAAATT against Elmo2 here?
A: inactive: -0.353

Q: Which z-score does the source give for GGCAGGCAACCAAUCAAAUTT against Npepps here?
A: inactive: 1.29

Q: Which z-score does the source give for GGAAAAAUGUAAUAAGCCATT against Dram2 here?
A: inactive: 0.86

Q: For GGCUGAAGUUCAAGGAUUGTT against Vmn1r49, which z-score is on record?
A: inactive: -1.7

Q: With GGCAGAAACUAGCAGAAGATT against Gdf2 as the sequence, how does the z-score read?
A: inactive: 0.286

Q: For CCUCAUGCAGUUAAAUAUGTT against Kera, which z-score is on record?
A: inactive: -1.56

Q: For GGACUUAGCUUUGUUUCCUTT against Nip7, which z-score is on record?
A: inactive: -0.493

Q: With GCAGAGAAUCGGACUUUCCTT against Gpatch2l as the sequence, how does the z-score read?
A: inactive: -1.27

Q: For GGAUAACCUAUCGAAUCUCTT against Dsg4, which z-score is on record?
A: inactive: 1.26

Q: With GGUAGAGGAGAUCUUCAAGTT against Entpd5 as the sequence, how does the z-score read?
A: inactive: -1.24

Q: For CCGUGAAGGGUGAACUUAUTT against Ldhal6b, which z-score is on record?
A: inactive: 0.537

Q: With CGUUGUCUAAAUUGUGAAATT against Kpna3 as the sequence, how does the z-score read?
A: inactive: 1.25

Q: For GGGUCAGAUUUUCAAUGUCTT against Bmpr1b, which z-score is on record?
A: inactive: 0.8

Q: Which z-score does the source give for CCAAAGAUCGGGAAAAGGATT against Defb28 here?
A: inactive: -1.52

Q: For CCCUGCUAUCAGCAUCACATT against Hacd3, which z-score is on record?
A: active: -3.09

Q: Which z-score does the source give for GGUGCAUUCAUUAUCUUAATT against Ikbkb here?
A: inactive: 1.57

Q: With GGUAUUUCAUGAACAUCACTT against Grin2d as the sequence, how does the z-score read?
A: inactive: 0.416

Q: For GCUACUUGGAGUGGAUCUGTT against Klk15, which z-score is on record?
A: inactive: 1.15

Q: Which z-score does the source give for GGAAAUGGAAUCAAGACAGTT against Eif5 here?
A: inactive: 0.913

Q: For CCAUGACCUCACUGAAGUCTT against Slc26a6, which z-score is on record?
A: inactive: 0.751

Q: Which z-score does the source give for GGUUUUAUGAUAAGGCUCATT against Olfr895 here?
A: inactive: -0.583

Q: Which z-score does the source give for GAUAUCACAGAUCUGUUGUTT against Krtap13 here?
A: inactive: -0.431

Q: For GCACGGCGAAAAAAUCUUCTT against Katnal2, which z-score is on record?
A: inactive: -0.167

Q: For “CGCAUCUGUUUCUUUUCCCTT against 1700029P11Rik”, which z-score is on record?
A: active: -2.22

Q: With GGUAAUGGGAGCUUUUGGGTT against Vmn1r228 as the sequence, how does the z-score read?
A: inactive: -0.168

Q: For GGUUUUGACCAUAAAAGAATT against Zfp830, which z-score is on record?
A: inactive: -1.73

Q: Which z-score does the source give for GGAACUAGUCUGGUGAACUTT against Apoa2 here?
A: inactive: -1.35

Q: Which z-score does the source give for GGCUUCUUCCUAGAAAUGCTT against Them7 here?
A: inactive: -0.689

Q: Which z-score does the source give for GGAUGUCAGGACAAAACCATT against Olfr1335 here?
A: active: -2.51

Q: Which z-score does the source give for GGCGUAUUCUGGUAUCCAGTT against Celf1 here?
A: active: 2.08

Q: With GGUGACUUUCUGUAAUCAUTT against Id3 as the sequence, how does the z-score read?
A: inactive: 1.65

Q: With GCGAACCAUUCCACUCUUUTT against Hpgd as the sequence, how does the z-score read?
A: inactive: 0.212

Q: Which z-score does the source give for UAUUGUUCACUGCACUGUATT against Lefty1 here?
A: inactive: 0.608

Q: Which z-score does the source give for GGAAUUCAGUGAAUGUCAUTT against Gapvd1 here?
A: active: -2.28

Q: For GGUGUUCUUAAUGAGAUUCTT against Gdf5, which z-score is on record?
A: inactive: 0.707

Q: Which z-score does the source give for GGUGGAACAACUGUUUCAATT against Dyrk3 here?
A: inactive: 0.541

Q: Which z-score does the source give for AUGAAGUCGUUGUUCUCAUTT against Olfr918 here?
A: inactive: -0.235

Q: For GGAGCUAGAGUUUUCACUATT against Chtop, which z-score is on record?
A: inactive: 1.73

Q: With GCCUUAGAGCACAUUCAGATT against Rnf6 as the sequence, how does the z-score read?
A: inactive: -0.608

Q: Which z-score does the source give for GGCAUCUGACGAUAAUGAUTT against Lman2l here?
A: inactive: -0.337

Q: Which z-score does the source give for GGAGGUACCUAUUGAGAUCTT against Acot8 here?
A: inactive: -1.48

Q: With GGAUCUCUCCUUGAGGAGATT against Glp2r as the sequence, how does the z-score read?
A: inactive: -0.268

Q: With “GGGACUUCCUUAUUGGAACTT against A830019P07Rik” as the sequence, how does the z-score read?
A: inactive: 1.23

Q: With GGUUUGAUCCUCCACAUUCTT against Nucks1 as the sequence, how does the z-score read?
A: inactive: -0.381

Q: For GGUGAGCACCUUCAAGUCUTT against Gpc2, which z-score is on record?
A: inactive: 0.749

Q: With CGUAUUAUGUCUGGUUUGUTT against Slc35a1 as the sequence, how does the z-score read?
A: inactive: -0.0557

Q: Which z-score does the source give for GGAAACCUAUGUCUCAAGATT against Mrps36 here?
A: inactive: -0.332

Q: For GGGUGUUUUCAUUAACACATT against Setdb1, which z-score is on record?
A: inactive: 1.14

Q: With GAAUGAGGAUCUACGAAAATT against Crygb as the sequence, how does the z-score read?
A: inactive: 1.39

Q: Which z-score does the source give for GGGUACCUCAUAAAGCAUATT against Dock2 here?
A: inactive: 0.0787

Q: Which z-score does the source give for GGCCAUUAACUUAAGUUUGTT against Dynlt3 here?
A: inactive: 0.76

Q: For GGUGUCCACAUUAAAUUACTT against Foxb1, which z-score is on record?
A: active: 2.21

Q: With GGCAGUUCCUGGAUUACCUTT against Il5 as the sequence, how does the z-score read?
A: inactive: -1.37

Q: Which z-score does the source give for GGCUGUGAAGAACUGGCAGTT against Rnaseh2a here?
A: inactive: 1.85

Q: With GCAUCAAAAAAAAUUCGUGTT against Dpysl2 as the sequence, how does the z-score read?
A: inactive: -0.137

Q: For GCGAGUAAUUUCGUUUCCCTT against Hoxd3, which z-score is on record?
A: inactive: 0.528

Q: Which z-score does the source give for GGCUAAUCCACUCUGAGUATT against Wasl here?
A: inactive: 0.636

Q: Which z-score does the source give for GGACUAUGAAAUUGACUGUTT against Hdlbp here?
A: inactive: 0.25

Q: With GCUGGGCAUUACCCAUGUUTT against Dusp13 as the sequence, how does the z-score read?
A: inactive: 0.649

Q: Which z-score does the source give for GGUUGUCAUUCUUAUCCUUTT against Mageb1 here?
A: inactive: 0.57

Q: With CCAGCUAUUGGAAGUAAAATT against Nbn as the sequence, how does the z-score read?
A: inactive: -1.05

Q: With CCUCACCUAUGGUACUUUCTT against Trcg1 as the sequence, how does the z-score read?
A: inactive: -1.43

Q: Which z-score does the source give for GGGAUGAGACACGAAACCUTT against Itga2b here?
A: inactive: -1.35

Q: With GCACAUGUAUCCAUGCUUCTT against Kcnj11 as the sequence, how does the z-score read?
A: inactive: -0.815

Q: Which z-score does the source give for GGACAGGAUCAGAGAAAGATT against Zbtb7c here?
A: active: -2.15

Q: Which z-score does the source give for GCUGAGGGAUAUCUCAGCCTT against Edn2 here?
A: inactive: 1.07

Q: For GGUAACUUCUCUUCUGAGATT against H2-Oa, which z-score is on record?
A: inactive: 0.269

Q: With GGCAGGACACCAUAUGGUUTT against Tedc1 as the sequence, how does the z-score read?
A: active: -2.16

Q: Which z-score does the source give for GCUUACUCUGUGGAUCCAGTT against Gm5420 here?
A: inactive: -0.524

Q: Which z-score does the source give for GGAAGGUGGCUAUUUUAAUTT against Acsl3 here?
A: inactive: -0.207
